Data as given in US20250129097A1, “RAS INHIBITORS” (Revolution Medicines, Inc., priority 2022, published 2025).
Some entries share one result that the patent states for a list of compounds.

The chains behind the UniProt entries cited, without tags or fusion partners. Where a name states a change or a piece, a line headed by the entry shows the natural chain unless it says otherwise.
UniProt P01116: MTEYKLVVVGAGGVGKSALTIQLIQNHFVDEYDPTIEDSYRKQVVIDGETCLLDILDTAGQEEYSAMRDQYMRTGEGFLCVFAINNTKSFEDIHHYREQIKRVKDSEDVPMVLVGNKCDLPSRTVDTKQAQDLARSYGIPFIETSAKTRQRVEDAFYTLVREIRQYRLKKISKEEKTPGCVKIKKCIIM
UniProt P62937, whole entry: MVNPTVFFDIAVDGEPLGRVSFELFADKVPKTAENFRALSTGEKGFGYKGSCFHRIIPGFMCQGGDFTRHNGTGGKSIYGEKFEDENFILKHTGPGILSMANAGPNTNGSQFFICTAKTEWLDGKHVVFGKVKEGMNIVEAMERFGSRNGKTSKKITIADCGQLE

Assays:
[1] = target: K-Ras G13C binding to BRAF^RBD (with Cyclophilin A) (Homo sapiens, UniProt P01116+P62937, G13C); assay: MOA assay: disruption of BRAF-RBD interaction with Ras (G13C); type: biochemical; settings: TR-FRET Ras:RAF disruption, stated as alternative: (i), (ii) or both
[2] = target: T1, K-Ras G12V (Capan-1 cells) (Homo sapiens, UniProt P01116+P62937, G12V); assay: Potency assay: pERK (Capan-1, K-Ras G12V); type: cell-based; settings: stated as alternative: (i), (ii) or both
T1 construct: endogenous in cells; host or cells: Capan-1

Compound | IC50 [1] [µM] | IC50 [2] [µM]
CCn1c(-c2cccnc2[C@H](C)OC)c2c3cc(ccc31)[C@@H]1C[C@H]1OC[C@H](NC(=O)[C@H]1[C@H](C)[C@@H]1C)C(=O)N1CCC[C@H](N1)C(=O)OCC(C)(C)C2 (racemic) [Compound A5, (1SR,2RS,3SR)—N-((2^1RS,2^2SR,7^3RS,5RS)-1^1-ethyl-1^2-(2-((RS)-1-methoxyethyl)pyridin-3-yl)-11,11-dimethyl-6,8-dioxo-7^1,7^2,7^3,7^4,7^5,7^6-hexahydro-1^1H-3,9-dioxa-1(5,3)-indola-7(1,3)-pyridazina-2(1,2)-cyclopropanacyclododecaphane-5-yl)-2,3-dimethylcyclopropane-1-carboxamide] | < 30 | < 8
CO[C@@H](C)c1ncccc1-c1c2c3cc(ccc3n1CC(F)(F)F)CCOC[C@H](NC(=O)[C@H]1C[C@@H]1C)C(=O)N1CCC[C@H](N1)C(=O)OCC(C)(C)C2 (atropisomer, axis not shown) [Compound A2] | < 30 | < 8
CO[C@@H](C)c1ncccc1-c1c2c3cc(ccc3n1CC(F)(F)F)CCN(C)C[C@H](NC(=O)[C@H]1C[C@@H]1C)C(=O)N1CCC[C@H](N1)C(=O)OCC(C)(C)C2 (atropisomer, axis not shown) [Compound A1] | < 30 | < 8
CCn1c(-c2cccnc2[C@H](C)OC)c2c3cc(ccc31)[C@@H]1C[C@H]1CC[C@H](NC(=O)[C@H]1[C@H](C)[C@@H]1C)C(=O)N1CCC[C@H](N1)C(=O)OCC(C)(C)C2 (atropisomer, axis not shown) [Compound A3] | < 30 | < 8
CCn1c(-c2cc(N3CCN(C)CC3)cnc2[C@H](C)OC)c2c3cc(ccc31)[C@@H]1C[C@H]1OC[C@H](NC(=O)[C@H]1[C@H](C)[C@@H]1C)C(=O)N1CCC[C@H](N1)C(=O)OCC(C)(C)C2 (atropisomer, axis not shown) [Compound A6, (1r,2R,3S)—N-((2^1R,2^2R,7^3S,5S)-1^1-ethyl-1^2-(2-((S)-1-methoxyethyl)-5-(4-methylpiperazin-1-yl)pyridin-3-yl)-11,11-dimethyl-6,8-dioxo-7^1,7^2,7^3,7^4,7^5,7^6-hexahydro-1′H-9-oxa-1(5,3)-indola-7(1,3)-pyridazina-2(1,2)-cyclopropanacyclododecaphane-5-yl)-2,3-dimethylcyclopropane-1-carboxamide] | < 30 | < 8
